The text below walks through data of PMC12647759 (Scientific Reports, 2025).

Amino acid sequences for entries named in this document (tags omitted). A change or cut given only in a name is not applied to a line headed by its entry.
UniProt Q9P212, whole entry: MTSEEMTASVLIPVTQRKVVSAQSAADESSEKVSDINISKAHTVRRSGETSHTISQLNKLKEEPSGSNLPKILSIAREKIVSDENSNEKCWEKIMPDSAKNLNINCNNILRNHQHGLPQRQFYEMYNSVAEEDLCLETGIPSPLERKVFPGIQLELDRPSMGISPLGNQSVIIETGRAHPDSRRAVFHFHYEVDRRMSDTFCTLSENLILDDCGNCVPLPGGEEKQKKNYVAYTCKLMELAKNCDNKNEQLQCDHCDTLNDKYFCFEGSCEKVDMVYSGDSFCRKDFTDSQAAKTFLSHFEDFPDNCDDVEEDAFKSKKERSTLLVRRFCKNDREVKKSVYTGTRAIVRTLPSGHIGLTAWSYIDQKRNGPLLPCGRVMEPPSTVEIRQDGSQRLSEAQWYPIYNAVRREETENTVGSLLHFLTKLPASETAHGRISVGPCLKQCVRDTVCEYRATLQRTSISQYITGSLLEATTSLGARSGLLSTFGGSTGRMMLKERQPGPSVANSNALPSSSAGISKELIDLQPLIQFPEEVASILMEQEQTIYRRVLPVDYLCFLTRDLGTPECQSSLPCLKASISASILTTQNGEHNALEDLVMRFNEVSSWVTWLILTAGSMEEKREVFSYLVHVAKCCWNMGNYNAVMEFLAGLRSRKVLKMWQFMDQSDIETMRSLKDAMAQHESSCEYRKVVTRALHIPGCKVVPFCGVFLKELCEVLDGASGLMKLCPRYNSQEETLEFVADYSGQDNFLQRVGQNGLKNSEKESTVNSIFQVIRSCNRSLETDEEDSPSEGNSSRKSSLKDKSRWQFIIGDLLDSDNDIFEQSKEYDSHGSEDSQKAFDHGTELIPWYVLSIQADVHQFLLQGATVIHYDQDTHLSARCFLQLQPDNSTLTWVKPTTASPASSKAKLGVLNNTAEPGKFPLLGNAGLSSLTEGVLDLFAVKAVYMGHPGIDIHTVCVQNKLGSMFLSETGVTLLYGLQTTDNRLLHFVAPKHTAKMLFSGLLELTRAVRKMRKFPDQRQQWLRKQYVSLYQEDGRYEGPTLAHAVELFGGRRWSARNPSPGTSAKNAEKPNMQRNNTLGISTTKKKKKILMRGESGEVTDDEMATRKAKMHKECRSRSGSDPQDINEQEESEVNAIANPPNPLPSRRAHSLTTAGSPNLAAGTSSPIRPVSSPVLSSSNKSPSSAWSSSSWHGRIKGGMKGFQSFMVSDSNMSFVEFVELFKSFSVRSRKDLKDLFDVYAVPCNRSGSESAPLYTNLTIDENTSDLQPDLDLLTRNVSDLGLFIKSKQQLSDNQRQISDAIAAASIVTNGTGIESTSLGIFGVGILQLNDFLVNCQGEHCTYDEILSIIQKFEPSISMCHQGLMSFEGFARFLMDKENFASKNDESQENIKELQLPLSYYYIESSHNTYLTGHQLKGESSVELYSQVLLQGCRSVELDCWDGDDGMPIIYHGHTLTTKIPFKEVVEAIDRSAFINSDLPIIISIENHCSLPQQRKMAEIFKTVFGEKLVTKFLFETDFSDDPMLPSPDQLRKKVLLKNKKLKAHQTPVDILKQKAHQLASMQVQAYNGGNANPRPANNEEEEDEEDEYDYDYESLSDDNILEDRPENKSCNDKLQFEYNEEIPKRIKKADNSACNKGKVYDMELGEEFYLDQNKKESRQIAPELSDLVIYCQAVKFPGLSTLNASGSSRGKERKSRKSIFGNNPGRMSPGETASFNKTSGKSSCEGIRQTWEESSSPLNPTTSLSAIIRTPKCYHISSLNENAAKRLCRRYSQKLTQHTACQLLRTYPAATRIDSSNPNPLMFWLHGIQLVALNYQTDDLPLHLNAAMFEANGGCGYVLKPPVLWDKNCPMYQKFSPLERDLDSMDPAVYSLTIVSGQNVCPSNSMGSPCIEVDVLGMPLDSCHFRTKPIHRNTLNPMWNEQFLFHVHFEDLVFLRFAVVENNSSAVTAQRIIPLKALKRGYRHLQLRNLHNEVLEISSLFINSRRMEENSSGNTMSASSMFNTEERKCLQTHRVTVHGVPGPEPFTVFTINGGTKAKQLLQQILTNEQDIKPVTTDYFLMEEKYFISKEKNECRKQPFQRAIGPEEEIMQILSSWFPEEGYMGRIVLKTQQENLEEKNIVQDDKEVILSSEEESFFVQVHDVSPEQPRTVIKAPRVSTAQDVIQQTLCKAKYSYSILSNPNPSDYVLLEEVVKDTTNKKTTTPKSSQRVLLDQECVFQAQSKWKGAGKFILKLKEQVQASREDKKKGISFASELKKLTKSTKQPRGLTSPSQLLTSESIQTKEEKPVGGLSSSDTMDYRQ
UniProt Q15147, whole entry: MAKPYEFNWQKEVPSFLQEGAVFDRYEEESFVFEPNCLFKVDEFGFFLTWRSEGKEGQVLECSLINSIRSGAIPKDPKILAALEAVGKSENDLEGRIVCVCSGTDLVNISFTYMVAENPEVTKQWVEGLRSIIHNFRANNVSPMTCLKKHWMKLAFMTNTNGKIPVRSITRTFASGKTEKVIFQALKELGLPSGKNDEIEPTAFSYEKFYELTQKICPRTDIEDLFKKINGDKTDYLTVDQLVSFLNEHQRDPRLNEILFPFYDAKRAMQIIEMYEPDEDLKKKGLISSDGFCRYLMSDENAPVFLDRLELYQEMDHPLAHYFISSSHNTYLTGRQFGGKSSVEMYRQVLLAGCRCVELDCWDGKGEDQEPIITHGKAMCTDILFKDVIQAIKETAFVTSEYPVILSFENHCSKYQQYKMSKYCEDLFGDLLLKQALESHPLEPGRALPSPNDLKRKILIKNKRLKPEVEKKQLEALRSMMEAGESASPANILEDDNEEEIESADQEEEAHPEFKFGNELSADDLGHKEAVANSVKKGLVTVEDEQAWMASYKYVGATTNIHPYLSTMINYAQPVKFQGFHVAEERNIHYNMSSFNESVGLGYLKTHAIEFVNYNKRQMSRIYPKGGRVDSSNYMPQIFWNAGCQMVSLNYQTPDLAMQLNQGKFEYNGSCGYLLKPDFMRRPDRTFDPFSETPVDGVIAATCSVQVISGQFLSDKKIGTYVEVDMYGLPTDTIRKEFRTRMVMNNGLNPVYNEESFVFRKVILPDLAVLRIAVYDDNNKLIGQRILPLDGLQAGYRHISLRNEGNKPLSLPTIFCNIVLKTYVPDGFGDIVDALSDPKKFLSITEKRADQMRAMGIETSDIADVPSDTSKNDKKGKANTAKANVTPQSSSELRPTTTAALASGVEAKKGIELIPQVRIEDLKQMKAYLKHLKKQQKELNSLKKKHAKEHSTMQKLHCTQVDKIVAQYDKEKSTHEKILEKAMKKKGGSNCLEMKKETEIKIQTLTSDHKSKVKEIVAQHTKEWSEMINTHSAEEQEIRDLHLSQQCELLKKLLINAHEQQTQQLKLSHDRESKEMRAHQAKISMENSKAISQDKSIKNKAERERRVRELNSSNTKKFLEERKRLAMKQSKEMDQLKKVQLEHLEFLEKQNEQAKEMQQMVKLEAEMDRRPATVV
UniProt P51178, whole entry: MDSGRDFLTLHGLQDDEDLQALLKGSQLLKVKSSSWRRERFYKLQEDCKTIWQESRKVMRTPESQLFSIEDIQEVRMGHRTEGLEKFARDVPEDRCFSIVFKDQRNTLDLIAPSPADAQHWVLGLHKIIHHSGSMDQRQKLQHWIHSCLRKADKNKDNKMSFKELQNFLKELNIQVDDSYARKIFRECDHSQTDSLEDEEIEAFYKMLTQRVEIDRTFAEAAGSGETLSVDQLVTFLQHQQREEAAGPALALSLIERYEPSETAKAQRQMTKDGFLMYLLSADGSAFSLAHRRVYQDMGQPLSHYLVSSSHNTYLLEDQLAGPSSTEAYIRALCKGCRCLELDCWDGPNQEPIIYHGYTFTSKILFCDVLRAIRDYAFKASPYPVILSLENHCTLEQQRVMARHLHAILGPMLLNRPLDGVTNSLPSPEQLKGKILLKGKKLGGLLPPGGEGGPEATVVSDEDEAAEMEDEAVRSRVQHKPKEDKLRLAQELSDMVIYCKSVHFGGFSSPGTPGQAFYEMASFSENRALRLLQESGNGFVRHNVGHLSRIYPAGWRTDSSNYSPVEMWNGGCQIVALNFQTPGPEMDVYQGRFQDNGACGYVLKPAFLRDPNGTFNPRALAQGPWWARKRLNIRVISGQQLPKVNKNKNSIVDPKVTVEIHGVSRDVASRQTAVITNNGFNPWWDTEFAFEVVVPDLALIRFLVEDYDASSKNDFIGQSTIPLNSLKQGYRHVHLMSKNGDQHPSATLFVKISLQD
UniProt P19174, whole entry: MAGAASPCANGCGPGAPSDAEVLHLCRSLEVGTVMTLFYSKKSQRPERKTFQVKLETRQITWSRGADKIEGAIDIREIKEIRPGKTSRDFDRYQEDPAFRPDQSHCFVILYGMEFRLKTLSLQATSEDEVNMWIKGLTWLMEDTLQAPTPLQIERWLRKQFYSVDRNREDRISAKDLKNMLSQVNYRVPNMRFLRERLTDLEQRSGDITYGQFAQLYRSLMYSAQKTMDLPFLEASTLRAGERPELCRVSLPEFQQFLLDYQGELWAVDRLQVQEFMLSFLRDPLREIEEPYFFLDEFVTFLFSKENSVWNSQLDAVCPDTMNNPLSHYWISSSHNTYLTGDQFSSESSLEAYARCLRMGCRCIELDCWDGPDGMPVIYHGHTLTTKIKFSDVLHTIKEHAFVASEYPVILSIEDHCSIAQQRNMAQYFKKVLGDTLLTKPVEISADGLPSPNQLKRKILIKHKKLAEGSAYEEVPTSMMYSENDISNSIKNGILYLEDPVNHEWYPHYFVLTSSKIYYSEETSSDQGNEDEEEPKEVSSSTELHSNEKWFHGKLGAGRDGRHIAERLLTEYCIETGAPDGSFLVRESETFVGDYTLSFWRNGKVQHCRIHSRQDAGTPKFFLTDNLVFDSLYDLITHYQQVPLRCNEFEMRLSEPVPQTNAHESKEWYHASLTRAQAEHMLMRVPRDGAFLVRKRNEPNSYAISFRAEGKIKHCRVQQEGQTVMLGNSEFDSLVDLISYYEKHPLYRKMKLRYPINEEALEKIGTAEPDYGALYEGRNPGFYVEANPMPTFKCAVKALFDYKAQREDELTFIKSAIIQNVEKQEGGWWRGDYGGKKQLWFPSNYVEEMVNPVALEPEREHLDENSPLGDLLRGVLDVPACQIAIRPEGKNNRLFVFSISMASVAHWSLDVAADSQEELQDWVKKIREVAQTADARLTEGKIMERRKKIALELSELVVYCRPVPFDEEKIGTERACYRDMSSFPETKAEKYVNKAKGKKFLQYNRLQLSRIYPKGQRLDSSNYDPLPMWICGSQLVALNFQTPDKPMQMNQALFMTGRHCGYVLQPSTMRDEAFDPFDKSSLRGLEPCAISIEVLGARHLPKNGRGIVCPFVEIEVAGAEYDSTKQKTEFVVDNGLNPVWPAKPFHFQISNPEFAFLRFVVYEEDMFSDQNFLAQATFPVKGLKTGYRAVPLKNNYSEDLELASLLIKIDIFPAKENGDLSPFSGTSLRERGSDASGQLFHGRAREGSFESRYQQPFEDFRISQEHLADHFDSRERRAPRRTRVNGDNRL

The structures given here were assigned with low confidence; some may be wrong.

One assay addresses human PLCε (Homo sapiens, UniProt Q9P212). Kind of assay: In vitro PLC assay using fluorogenic substrate Compound 1 (HTS), PLCε. Conditions: read-out: IC50, inhibition of PLCε (hydrolysis of Compound 1), purified full-length PLCε.
A further assay deals with human PLCβ4 (Homo sapiens, UniProt Q15147). Kind of assay: In vitro PLC assay using fluorogenic substrate Compound 1, PLCβ4. Conditions: read-out: IC50, inhibition of PLCβ4 (hydrolysis of Compound 1); purified PLCβ4, fluorogenic substrate Compound 1.
For a further assay, the target named is human PLCδ1 (Homo sapiens, UniProt P51178). Kind of assay: In vitro PLC assay using fluorogenic substrate Compound 1, PLCδ1. Conditions: read-out: IC50, inhibition of PLCδ1 (hydrolysis of Compound 1); purified PLCδ1, fluorogenic substrate Compound 1.
The target in another assay is human PLCγ1 (Homo sapiens, UniProt P19174). Kind of assay: In vitro PLC assay using fluorogenic substrate Compound 1, PLCγ1. The conditions noted are these: read-out: IC50, inhibition of PLCγ1 (hydrolysis of Compound 1); purified PLCγ1, fluorogenic substrate Compound 1.

In the case of `C[n+]1cc2c3c(ccc2c2ccc4cc5c(cc4c21)OCO5)OCO3` [Sanguinarine, sanguinarine], the IC50 (as a rule, the concentration needed to halve the response being measured) on human PLCε is 2.9 µM; at human PLCβ4, 3.9 µM; at human PLCδ1, 3.4 µM; on human PLCγ1, 4.6 µM.
